{
  "sequences": {"note": "Amino acid sequences for entries named in this document (tags omitted). A change or cut given only in a name is not applied to a line headed by its entry. Residues count along the entry.", "UniProt P0AEZ3, residues 1-260": "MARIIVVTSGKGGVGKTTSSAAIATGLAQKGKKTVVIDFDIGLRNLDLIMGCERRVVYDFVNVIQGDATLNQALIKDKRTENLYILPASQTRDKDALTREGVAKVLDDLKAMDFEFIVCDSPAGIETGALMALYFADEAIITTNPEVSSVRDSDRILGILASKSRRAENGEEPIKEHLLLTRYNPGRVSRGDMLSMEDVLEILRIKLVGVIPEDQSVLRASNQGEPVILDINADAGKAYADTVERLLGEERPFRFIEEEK"},
  "source": "paper PMC5548801",
  "about": "“Characterization of C-terminal structure of MinC and its implication in evolution of bacterial cell division” (Scientific Reports, 2017)",
  "target": "EcMinDΔC10 (E. coli) (UniProt P0AEZ3)",
  "test": "pull-down; competition experiment on the MinDE complex, MinE looked for in the elution (Fig. S7); set-up not shown",
  "note": "Results are given in words; binding and its absence hold for the method and conditions named. In cells and extracts the contact can be indirect. Some results given as binding are weak or reduced against the parent protein; the word gives no strength.",
  "data": [
    {"substance": "EcMinE (from UniProt P0A734 1-88)", "values": [
      {"measurement": "binding", "result": "binds"}
    ]}
  ]
}
